PubChem BioAssay AID686938, Drosophila RNAi Screening Center | 2013

Purpose: 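Knock-downs reducing store-operated calcium influx in Drosophila cells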 (primary screen)
Cell system: Drosophila S2R+ cells
Knock-down reagent: long dsRNA against Drosophila genes, about 0.25 µg dsRNA per well, roughly 10,000 cells
Time to read-out: 5 days of knock-down before the calcium assay
Conditions: thapsigargin (SERCA pump blocker) to empty calcium stores; entry signal taken 4 min after adding it
Measured: 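Per-well fluo-4 fluorescence in two replicates, unnormalised, measured in resting cells and 4 min after store depletion by the SERCA blocker thapsigargin; ratio of the two present in few wells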
Direction: calcium entry signal: higher = stronger calcium signal after store depletion; resting calcium signal: higher = higher resting calcium signal
Call rule: 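Hit if the duplicate-averaged plate z-score for entry over resting signal is under −3; wells with weak total dye signal (Fmax z < −2) or more than 5 off-targets removed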
Calls: active = strongly reduced calcium entry; inactive = no strong reduction
In all, the deposit lists about 23,000 reagents; this is an unselected part of those that have a named target and a result. Over the whole deposit, 75 (0.33%) were called active. 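Raw plate signals without normalisation; calls rest on plate z-scores that were not deposited; ratio present for only 364 wells.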 Names joined by + are all predicted targets of the reagent. The record does not give: the dose of the treatment.

no.	target	amplicon	calcium entry signal, replicate 1 (fluorescence units)	calcium entry signal, replicate 2 (fluorescence units)	resting calcium signal, replicate 1 (fluorescence units)	resting calcium signal, replicate 2 (fluorescence units)	Outcome
1	Ir47a (Ionotropic receptor 47a)	DRSC06215	4.75e7	2.67e7	2.10e7	1.48e7	inactive
2	lok (loki)	DRSC03567	4.85e7		2.45e7		inactive
3	comt (comatose)	DRSC20319	3.49e7	4.45e7	1.83e7	2.07e7	inactive
4	Ilp1 (Insulin-like peptide 1)	DRSC10174	3.24e7	4.95e7	1.77e7	2.17e7	inactive
5	mesh	DRSC14472	4.56e7	5.62e7	2.39e7	2.65e7	inactive
6	mesh	DRSC15098	3.96e7	6.26e7	1.95e7	2.49e7	inactive
7	mesh	DRSC15099	4.03e7	5.39e7	2.03e7	2.39e7	inactive
8	CG30187	DRSC22461	2.80e7	3.82e7	1.61e7	1.70e7	inactive
9	Tbp (TATA binding protein)	DRSC04662	3.29e7	3.42e7	1.44e7	1.45e7	inactive
10	Tbp (TATA binding protein)	DRSC23111	3.13e7	2.40e7	1.30e7	1.00e7	inactive
11	CCKLR-17D3 (Cholecystokinin-like receptor at 17D3)	DRSC20015	5.47e7	1.88e7	2.21e7	9.45e6	inactive
12	CCKLR-17D3 (Cholecystokinin-like receptor at 17D3)	DRSC20017	5.36e7	3.81e7	2.36e7	1.57e7	inactive
13	wfs1 (wolfram syndrome 1)	DRSC15676	4.34e7	3.33e7	2.33e7	1.67e7	inactive
14	CG33773	DRSC14032	3.14e7	4.02e7	1.62e7	1.62e7	inactive
15	CG9917	DRSC20218	3.78e7	4.41e7	1.79e7	2.12e7	inactive
16	CG7272	DRSC10795	3.05e7	5.18e7	1.53e7	2.17e7	inactive
17	CG6709 + Hez	DRSC10165	2.85e7	4.09e7	1.50e7	1.91e7	inactive
18	CG6709 + Hez	DRSC10698	3.44e7	4.32e7	1.69e7	1.82e7	inactive
19	Eato (Engulfment ABC Transporter in the ovary)	DRSC01891	5.88e7		2.56e7		inactive
20	Eato (Engulfment ABC Transporter in the ovary)	DRSC03061	4.79e7	2.99e7	2.06e7	1.24e7	inactive
21	CG43335	DRSC15764	2.39e7	4.95e7	1.23e7	5.81e7	inactive
22	CG43335	DRSC22671	3.39e7	2.94e7	1.64e7	1.22e7	inactive
23	Or10a (Odorant receptor 10a)	DRSC20264	3.07e7	3.86e7	1.44e7	1.87e7	inactive
24	Myo61F (Myosin 61F)	DRSC22144	2.66e7	3.50e7	1.33e7	1.55e7	inactive

Laid out differently: entries from further up.
| target | amplicon | calcium entry signal, replicate 1 (fluorescence units) | calcium entry signal, replicate 2 (fluorescence units) | resting calcium signal, replicate 1 (fluorescence units) | resting calcium signal, replicate 2 (fluorescence units) | Outcome |
| --- | --- | --- | --- | --- | --- | --- |
| mesh | DRSC14472 | 4.56e7 | 5.62e7 | 2.39e7 | 2.65e7 | inactive |
| mesh | DRSC15098 | 3.96e7 | 6.26e7 | 1.95e7 | 2.49e7 | inactive |
| mesh | DRSC15099 | 4.03e7 | 5.39e7 | 2.03e7 | 2.39e7 | inactive |
